Data as given in PubChem BioAssay AID1224828 (NIAID, 2016)
The deposit covers about 17,000 reagents; below is a part drawn at random. 762 of them (4.5%) count as active. 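Active calls include both raised and lowered p65 entry, mostly lowered; wells with fewer than 50 cells lack a z-score.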 Raw values vary from plate to plate and are shown uncorrected.

Assay: 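Knock-downs that increase or decrease LPS-induced p65 nuclear translocation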 (primary screen)
Cells: mouse RAW264.7 G9 macrophage reporter cells (GFP-p65, Tnf promoter-mCherry)
Knock-down reagent: siRNA pool against mouse genes, 100 nM
Timing: 2 days siRNA transfection, then 40 min LPS before fixation
Treatment: LPS (Salmonella minnesota R595) at 10 ng/ml
Detection: 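Microscopy ratio of nuclear to perinuclear-ring GFP-p65 signal, scaled to the plate median; gene score is the average of two replicate robust z-scores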
Scale: p65 translocation robust z-score: higher = more nuclear NF-kappaB p65 after LPS than the plate median; nuclear/cytoplasmic p65 ratio: higher = more nuclear NF-kappaB p65
Active means: 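Called active when z exceeds 3.3 or falls under -1.56 (median of Tlr4 controls), giving activity score of at least 50; no calls for control wells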
Meaning of the calls: active = hit (p65 shift raised or lowered); inactive = no clear change

| gene symbol | p65 translocation robust z-score | nuclear/cytoplasmic p65 ratio, rep 1 | nuclear/cytoplasmic p65 ratio, rep 2 | low cell count flag | Call |
| --- | --- | --- | --- | --- | --- |
| Or10a3b | – | 1.66 | 1.37 | fewer than 50 cells per well; well left out of scoring | inactive |
| Ikbkb | 0.68 | 2.79 | 1.46 | enough cells to score | inactive |
| Caskin2 | -2.65 | 1.25 | 1.29 | enough cells to score | active |
| Atp6v0d2 | -0.82 | 1.38 | 1.5 | enough cells to score | inactive |
| Pik3r5 | 0.85 | 1.59 | 1.46 | enough cells to score | inactive |
| Pcdhb19 | 0.71 | 1.56 | 1.49 | enough cells to score | inactive |
| Suv39h2 | -1.48 | 1.39 | 1.29 | enough cells to score | inactive |
| Or8c10 | – | 1.17 | 1.09 | fewer than 50 cells per well; well left out of scoring | inactive |
| Picalm | 2.02 | 1.75 | 1.7 | enough cells to score | inactive |
| Or5c1 | -0.36 | 1.66 | 1.38 | enough cells to score | inactive |
| Adad1 | 0.27 | 1.49 | 1.15 | enough cells to score | inactive |
| Them6 | – | 1.41 | 1.34 | fewer than 50 cells per well; well left out of scoring | inactive |
| Arl13b | 0.43 | 1.5 | 1.57 | enough cells to score | inactive |
| Snurf | – | 1.3 | 1.3 | fewer than 50 cells per well; well left out of scoring | inactive |
| Prdx6b | 0.13 | 1.3 | 1.3 | enough cells to score | inactive |
| Snapc3 | -0.52 | 1.5 | 1.45 | enough cells to score | inactive |
| Ing4 | – | 1.18 | 1.3 | fewer than 50 cells per well; well left out of scoring | inactive |
| Tmem72 | – | 1.25 | 1.54 | fewer than 50 cells per well; well left out of scoring | inactive |
| Vcl | 0.58 | 1.62 | 2.01 | enough cells to score | inactive |
| Frmd6 | – | 1.03 | 1.24 | fewer than 50 cells per well; well left out of scoring | inactive |
| Nrf1 | -0.5 | 1.36 | 1.37 | enough cells to score | inactive |
| Rad17 | 1.61 | 1.7 | 1.78 | enough cells to score | inactive |
| Nucleolin | 1.84 | 2.1 | 1.85 | enough cells to score | inactive |
| Cdyl2 | 0.91 | 1.65 | 2.02 | enough cells to score | inactive |
